Data taken from patent US9920035B2, “Heterocyclic compounds, medicaments containing said compounds, use thereof and processes for the preparation thereof” (Boehringer Ingelheim International GmbH, priority 2011, dated 2018).

By UniProt entry, the sequences of proteins in these tests, tags left out.
UniProt Q61180, whole entry: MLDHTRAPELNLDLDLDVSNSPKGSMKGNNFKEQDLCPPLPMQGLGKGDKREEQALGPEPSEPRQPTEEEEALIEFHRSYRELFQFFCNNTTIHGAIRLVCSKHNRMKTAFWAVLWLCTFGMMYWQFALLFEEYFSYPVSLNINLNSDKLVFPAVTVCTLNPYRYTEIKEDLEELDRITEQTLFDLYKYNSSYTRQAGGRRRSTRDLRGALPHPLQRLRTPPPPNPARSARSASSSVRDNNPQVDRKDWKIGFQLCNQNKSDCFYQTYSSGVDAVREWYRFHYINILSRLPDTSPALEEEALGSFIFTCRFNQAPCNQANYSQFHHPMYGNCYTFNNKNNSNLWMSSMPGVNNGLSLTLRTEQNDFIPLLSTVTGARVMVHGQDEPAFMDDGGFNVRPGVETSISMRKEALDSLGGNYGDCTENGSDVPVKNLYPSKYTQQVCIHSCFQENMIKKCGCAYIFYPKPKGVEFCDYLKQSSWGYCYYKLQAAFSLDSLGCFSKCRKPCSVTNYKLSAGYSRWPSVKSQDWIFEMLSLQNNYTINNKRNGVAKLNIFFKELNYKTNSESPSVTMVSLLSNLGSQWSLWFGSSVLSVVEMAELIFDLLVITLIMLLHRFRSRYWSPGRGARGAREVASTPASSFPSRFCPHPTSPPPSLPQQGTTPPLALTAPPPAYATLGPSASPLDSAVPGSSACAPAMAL
UniProt Q9WU38, whole entry: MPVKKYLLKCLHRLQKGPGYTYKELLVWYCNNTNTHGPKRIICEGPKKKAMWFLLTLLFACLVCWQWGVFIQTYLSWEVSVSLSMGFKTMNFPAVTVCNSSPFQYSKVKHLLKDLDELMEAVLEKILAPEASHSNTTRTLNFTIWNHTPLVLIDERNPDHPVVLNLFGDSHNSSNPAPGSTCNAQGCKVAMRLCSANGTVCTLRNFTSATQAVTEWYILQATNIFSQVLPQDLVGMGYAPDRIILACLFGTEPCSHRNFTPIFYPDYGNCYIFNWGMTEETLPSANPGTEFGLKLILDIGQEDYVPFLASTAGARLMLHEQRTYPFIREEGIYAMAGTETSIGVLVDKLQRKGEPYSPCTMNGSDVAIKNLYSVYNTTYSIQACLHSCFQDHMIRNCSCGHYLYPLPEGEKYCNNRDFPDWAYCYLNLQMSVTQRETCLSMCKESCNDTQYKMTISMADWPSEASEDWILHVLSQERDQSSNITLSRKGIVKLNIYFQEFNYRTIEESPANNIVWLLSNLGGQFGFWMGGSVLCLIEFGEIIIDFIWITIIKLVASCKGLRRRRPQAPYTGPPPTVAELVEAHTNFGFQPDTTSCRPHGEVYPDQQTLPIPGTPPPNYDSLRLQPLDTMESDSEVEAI
UniProt Q9WU39, whole entry: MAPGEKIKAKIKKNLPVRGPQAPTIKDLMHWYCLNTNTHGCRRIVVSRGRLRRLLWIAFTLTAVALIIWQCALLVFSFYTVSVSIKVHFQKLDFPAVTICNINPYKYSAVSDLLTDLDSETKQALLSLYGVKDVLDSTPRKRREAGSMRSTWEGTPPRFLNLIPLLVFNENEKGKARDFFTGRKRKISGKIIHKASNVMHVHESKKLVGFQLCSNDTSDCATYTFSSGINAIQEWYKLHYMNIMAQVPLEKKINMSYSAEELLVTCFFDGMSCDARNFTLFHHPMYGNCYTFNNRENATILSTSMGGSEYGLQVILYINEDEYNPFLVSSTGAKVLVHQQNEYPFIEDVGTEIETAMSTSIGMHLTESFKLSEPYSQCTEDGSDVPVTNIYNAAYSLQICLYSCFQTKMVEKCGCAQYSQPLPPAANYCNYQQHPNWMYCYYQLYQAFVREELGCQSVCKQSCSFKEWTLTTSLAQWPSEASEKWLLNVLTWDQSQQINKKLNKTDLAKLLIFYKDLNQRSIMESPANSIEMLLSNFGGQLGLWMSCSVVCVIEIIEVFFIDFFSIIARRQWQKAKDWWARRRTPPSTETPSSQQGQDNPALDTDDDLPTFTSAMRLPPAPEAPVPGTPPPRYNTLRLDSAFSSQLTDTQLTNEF

These compounds were tested against epithelial sodium channel (ENaC) (Mus musculus, UniProt Q61180+Q9WU38+Q9WU39) (assay: Ussing chamber: inhibition of amiloride sensitive short circuit current (I_sc) in M-1 cells). Conditions: Mouse kidney M-1 cells on transwell filters, Ussing chamber at 37° C., compound added to the apical solution.
Format: cell-based

IC50 [nM]	Compound
89	CN1CCC(CNC(N)=NC(=O)c2nc(Cl)c(N)nc2N)(Cc2ccccc2)CC1
61	CC(C)(C)OC(=O)N1CCC(CNC(N)=NC(=O)c2nc(Cl)c(N)nc2N)(Cc2ccccc2)CC1
33	CC(C)(C)OC(=O)NCCC(=O)N1CCC(CNC(N)=NC(=O)c2nc(Cl)c(N)nc2N)(Cc2ccccc2)CC1
29	CN(C)CCNC(=O)N1CCC(CNC(N)=NC(=O)c2nc(Cl)c(N)nc2N)(Cc2ccccc2)CC1
11	CC(C)(C)OC(=O)NCCNC(=O)N1CCC(CNC(N)=NC(=O)c2nc(Cl)c(N)nc2N)(Cc2ccccc2)CC1
46	CN1CCC(NC(=O)N2CCC(CCc3ccccc3)(CNC(N)=NC(=O)c3nc(Cl)c(N)nc3N)CC2)CC1
23	CN(C)CCCNC(=O)N1CCC(CCc2ccccc2)(CNC(N)=NC(=O)c2nc(Cl)c(N)nc2N)CC1

The match of structure and compound is tentative.
